# Laboratory results reported in PubChem BioAssay AID540303 (National Center for Advancing Translational Sciences (NCATS), 2011).
# In all, about 330,000 compounds went through this assay and about 1,000 (0.3%) were called active. The inconclusive results got no clear call from the source; some entries with a clear call stand among them for comparison. The call rests on the fitted dose curve; in most records, active means well fitted inhibition curve with a large enough effect; inconclusive means small, poorly fitted or top-dose-only effect; inactive means no such curve, though single readings can be large or run the other way; tested in mouse RAW 264.7 cells. A potency beside an inconclusive call is a rough fit, not a confirmed value.
# Experiment: qHTS for Inhibitors of Cell Surface uPA Generation; further: nearly all actives have a fitted effect of over 55% in size
# Details: cell surface uPA generation assay; series mostly up to 38.3 µM
# In short: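 Murine RAW 264.7 cells are treated for 24 h with compound up to 38.3 uM final. Cell ATP, measured by ATP-Lite, remains high if blocking the uPA cascade prevents LF from reaching the cytoplasm.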
# Potency means the concentration at half of the fitted maximal effect.
row,SMILES,Potency
1,Oc1ccc(Br)cc1/C=N/Nc1ccccn1,active: 2.82 µM
2,COC(=O)N/N=C/c1c[n+]([O-])c2ccccc2[n+]1[O-],"inconclusive: 1.78 µM [inhibitor, partial curve, poor fit]"
3,CSc1ccc(/C=C2\NC(=O)NC2=O)cc1,"inconclusive: 7.08 µM [inhibitor, partial curve, poor fit]"
4,CC1(C)O[C@@H]2C[C@H]3[C@@H]4C[C@H](F)C5=CC(=O)C=C[C@]5(C)[C@@]4(F)[C@@H](O)C[C@]3(C)[C@]2(C(=O)CO)O1,"inconclusive: 2.24 µM [inhibitor, full curve, poor fit]"
5,CC1Cc2ccccc2N1S(=O)(=O)c1cnc(Cl)c(Cl)c1 (centres undefined),"inconclusive: 5.01 µM [inhibitor, partial curve, poor fit]"
6,N#CC1=C(N)Oc2ccc3ccccc3c2C1c1cccnc1 (centres undefined),"inconclusive: 5.01 µM [inhibitor, full curve, poor fit]"
7,CCN(CC)S(=O)(=O)c1cc(NC(=O)CSc2nccn2C)ccc1C,inactive
8,Cc1cc(C)cc(N(CC(=O)Nc2ccccc2)C2=NC3CS(=O)(=O)CC3S2)c1 (centres undefined),"inconclusive: 8.91 µM [inhibitor, partial curve]"
9,CC(Oc1ccccc1)C(=O)N1CCN(c2ccc(N3CCCCC3)nn2)CC1 (centres undefined),"inconclusive: 11.2 µM [inhibitor, single point]"
10,CN(C(=O)c1ccc(NC(=O)Cc2cccc(NC(=O)C3CCN(C(=O)C4CCC4)CC3)c2)cc1)C1CC1,"inconclusive: 10 µM [inhibitor, partial curve]"
11,CN(C)c1ccc(/C=C(\C#N)c2ccccn2)cc1,inactive
12,CCCCC(=O)NC(c1ccccc1Cl)c1ccc2cccnc2c1O (centres undefined),"inconclusive: 2.24 µM [inhibitor, full curve, poor fit]"
13,CCC(C)Sc1ccc(-c2nc3ccccn3c2NCc2ccccc2)cc1OC (centres undefined),"inconclusive: 8.91 µM [inhibitor, single point]"
14,CCOc1ccc2nc(NC(=O)C3CSC4(C)CCC(=O)N34)sc2c1 (centres undefined),"inconclusive: 3.98 µM [inhibitor, partial curve]"
15,CCn1c(/N=C/c2ccc(OC)cc2O)nc2ccccc21,inactive
16,CN(c1ccc(F)cc1)S(=O)(=O)c1ccc(Cl)c(C(=O)NCc2ccco2)c1,"inconclusive: 2.51 µM [inhibitor, partial curve, poor fit]"
17,CC(C)c1c(C(=O)N/N=C/c2ccncc2)nnn1-c1nonc1N,"inconclusive: 2 µM [inhibitor, single point]"
18,CCCN1CCc2c(sc(NC(=O)c3ccc(S(=O)(=O)N4CCN(C(=O)OCC)CC4)cc3)c2C(N)=O)C1,"inconclusive: 28.2 µM [inhibitor, single point]"
19,Clc1ccc(-c2cnnc(-c3ccccn3)n2)cc1,"inconclusive: 7.94 µM [inhibitor, single point]"
20,O=C1OC(c2ccc(Cl)cc2)=C/C1=C/c1cccnc1,inactive
21,Cc1ccc(S(=O)(=O)NCc2ccc(C(=O)N3CCN(Cc4ccccc4)CC3)cc2)cc1,inactive
22,CCc1ccc(NC(=O)NCCN2CCCCC2)cc1,"inconclusive: 5.62 µM [inhibitor, partial curve, poor fit]"
23,COc1ccc(-c2ccc([C@H]3[C@H]4C=CC[C@@H](C)[C@@H]4C(=O)N3Cc3ccccc3)c(F)c2)cc1,"inconclusive: 28.2 µM [inhibitor, single point]"

row,SMILES,Potency
1,Cc1ccc(CN2CC(=O)N3[C@H]4c5ccccc5OC[C@@H]4[C@H](c4ccccc4)[C@]3(C)C2=O)cc1,"inconclusive: 20 µM [inhibitor, single point]"
2,CC(C)Cn1c(N)c(C(=O)CSc2nncs2)c(=O)n(C)c1=O,inactive
3,O=C(NCc1ccncc1)c1ccc(Oc2ccccc2)cc1,inactive
4,COc1ccc2cc3cc(C(=O)Nc4cc(OC)c(OC)c(OC)c4)oc3nc2c1,inactive
5,CC(=O)c1cccc(NC(=O)c2ccc(CN3CCc4ccccc4C3)cc2)c1,"inconclusive: 12.6 µM [inhibitor, single point]"
6,Cc1ccccc1Cn1cc(NC(=O)c2cc(C3CC3)on2)cn1,"inconclusive: 10 µM [inhibitor, single point]"
7,COc1cccc(NC(=O)c2ccc(OC(F)(F)F)cc2)c1,"inconclusive: 12.6 µM [inhibitor, single point]"
8,COc1ccc(NC2CCCN(C(=O)c3cc(C)nc4cc(F)ccc34)C2)cc1 (centres undefined),inactive
9,Fc1ccc(OCc2nc(-c3cccs3)no2)cc1,inactive
10,O=C1/C(=C/c2ccc(O)cc2)CCc2ccc([N+](=O)[O-])cc21,inactive
11,CC(C)c1ccc(N2C(=O)CC(Sc3ncccn3)C2=O)cc1 (centres undefined),"inconclusive: 14.1 µM [inhibitor, single point]"
12,CCCCNc1c(-c2ccc(SC(C)CC)cc2)nc2cnccn12 (centres undefined),"inconclusive: 7.08 µM [inhibitor, partial curve]"
13,N=c1n(CCO)c2ccccc2n1CCOc1ccc(Cl)cc1Cl,"inconclusive: 12.6 µM [inhibitor, single point]"
14,CCn1cc(C2C(C(=O)Nc3cc(C)ccn3)=C(C)NC3=C2C(=O)CC(C)(C)C3)c(C)n1 (centres undefined),inactive
15,Cc1cc(C)c(S(=O)(=O)N2CCN(C3CC(=O)N(c4ccccc4Cl)C3=O)CC2)c(C)c1 (centres undefined),"inconclusive: 3.98 µM [inhibitor, partial curve, poor fit]"
16,COC(=O)[C@@]12CCCN1[C@H](c1ccc(-c3ccccc3)cc1)[C@@H]1C(=O)N(C)C(=O)[C@@H]12,inactive
17,Cc1ccc2c(c1)[C@H]1[C@H](CO2)[C@H](c2ccccc2)[C@]2(C)C(=O)Nc3cc(F)c(F)cc3C(=O)N12,"inconclusive: 12.6 µM [inhibitor, single point]"
18,Cc1ccc(S(=O)(=O)NC(C)(C)CN2CCC(Cc3ccccc3)CC2)cc1,"inconclusive: 4.47 µM [inhibitor, partial curve]"
19,NC(=O)Nc1ccc(C(=O)N2CCN(S(=O)(=O)Cc3ccccc3)CC2)cc1,"inconclusive: 31.6 µM [inhibitor, single point]"
20,CCCCCCN(C(=O)CCl)c1ccccc1,active: 2.51 µM
21,CCCCCCCNC(=O)C1(CC2CC(c3cccc(Br)c3)=NO2)CCN(C(=O)c2ccccc2)CC1 (centres undefined),"inconclusive: 10 µM [inhibitor, single point]"
22,COc1ccc(-c2cc(N)n(S(=O)(=O)c3ccc(F)cc3)n2)cc1OC,"inconclusive: 3.98 µM [inhibitor, partial curve, poor fit]"
23,CCn1c(SCC(=O)N2CCCC2=O)nnc1-c1cccs1,"inconclusive: 1 µM [inhibitor, full curve, poor fit]"

# In the list so far, these have a cyano group.
row,SMILES,Potency
6,N#CC1=C(N)Oc2ccc3ccccc3c2C1c1cccnc1 (centres undefined),"inconclusive: 5.01 µM [inhibitor, full curve, poor fit]"
11,CN(C)c1ccc(/C=C(\C#N)c2ccccn2)cc1,inactive

# In another format: entries from further up.
row	SMILES	Potency
11	CN(C)c1ccc(/C=C(\C#N)c2ccccn2)cc1	inactive
12	CCCCC(=O)NC(c1ccccc1Cl)c1ccc2cccnc2c1O (centres undefined)	inconclusive: 2.24 µM [inhibitor, full curve, poor fit]

# Remaining list, next part.

row,SMILES,Potency
1,CN(Cc1ccccc1)C(=O)COC(=O)CCC(=O)c1ccc(Cl)cc1,inactive
2,CCOc1ccc2nc(SCC(=O)N(CC(C)C)c3c(N)n(CC(C)C)c(=O)[nH]c3=O)[nH]c2c1,inactive
3,C/C=C\C(=O)Nc1cccc(C2=NOC3(C2)C[C@@H](C(N)=O)N(C(=O)c2ccc(OC)cc2)C3)c1 (some centres undefined),inactive
4,COCOc1cc(O)c(C(=O)/C=C/c2ccccc2)c(OCOC)c1,active: 10 µM
5,Cc1ccc2c(c1)C(=C(C#N)C#N)C(=O)N2CCN1CCOCC1,"inconclusive: 31.6 µM [inhibitor, single point]"
6,COc1ccc(NC(=O)COC(=O)CCNC(=O)c2ccco2)cc1Cl,"inconclusive: 0.355 µM [inhibitor, full curve, poor fit]"
7,CCN1CCN(CCCOc2ccccc2-c2ccccc2)CC1,"inconclusive: 22.4 µM [inhibitor, single point]"
8,COc1ccc(N=Nc2nc(-c3ccccc3)c(-c3ccccc3)[nH]2)cc1,inactive
9,Clc1ccc(-n2ncc3c(N4CCCCCC4)ncnc32)cc1,"inconclusive: 0.794 µM [inhibitor, partial curve, poor fit]"
10,COC(=O)C1=C(C(=O)OC)C(c2ccc(OC)c(OC)c2)c2sc(=O)[nH]c2S1 (centres undefined),inactive
11,O=c1cc(-c2ccccc2)oc2ccc(Br)cc12,"inconclusive: 1.41 µM [inhibitor, partial curve, poor fit]"
12,CCN(CC)CCCNC(=O)c1sc2ncn(CC(=O)Nc3ccc(C)c(Cl)c3)c(=O)c2c1C,"inconclusive: 10 µM [inhibitor, partial curve, poor fit]"
13,CC(C)(C)C1(C)OC(=O)C(=Cc2ccc(OCC(=O)Nc3ccccc3)cc2)C(=O)O1 (centres undefined),inactive
14,CC1CCN(C(=O)c2ccc(CNS(=O)(=O)c3ccc(C(C)(C)C)cc3)cc2)CC1,"inconclusive: 28.2 µM [inhibitor, single point]"
15,C=CCOc1ccc2ccccc2c1CNn1cn[nH]c1=S,inactive
16,CCc1nc2ccccc2c(NC(=O)CN2CCC(C)CC2)c1C,inactive
17,COc1ccc(C(=O)CSc2nnc(CN3CCCCC3)n2-c2ccc(F)cc2)cc1,inactive
18,Cc1ccc(S(=O)(=O)Oc2ccc(C3C4=C(CCCC4=O)OC4=C3C(=O)CCC4)cc2)cc1,inactive
19,Cn1nc(-c2ccccc2)c(CSc2ccccc2Cl)c1Cl,inactive
20,Cc1ccc(-c2n[nH]c(=S)n2/N=C/C=C\c2ccccc2[N+](=O)[O-])cc1,inactive
21,CCOC(=O)N1CCN(C(=O)Nc2ccc3oc(C)nc3c2)CC1,inactive
22,CS(=O)(=O)c1ccc2nc(NC(=O)c3cccc([N+](=O)[O-])c3)sc2c1,"inconclusive: 8.91 µM [inhibitor, partial curve, poor fit]"
23,Cc1cccc(CSc2ccc3nnc(-c4cccs4)n3n2)c1,inactive
